From PubChem BioAssay AID248 (DTP/NCI, 2004)
The list shows only some results of the screen, not a fair sample: it is rich in T/C values a quarter to a half above the control, in often repeated tests (any T/C) and in doses without a T/C. Other doses and runs of a compound stand elsewhere. T/C is the treated group as % of the vehicle group. Some entries give survivors of the animals treated and no T/C: the source holds a T/C of zero for them, seemingly a mark for toxic or unscored doses. Some survivor counts are full or nearly so, which does not show that the dose was tolerated: survival well below the control is almost never listed, so the zero probably covers shortened survival too. Survivors were counted at the toxicity check, usually on the fifth day, unless a day is given; later deaths do not show. Schedules are NCI's codes, read here as Q, the interval in days (D) or hours (H), X, the number of doses. Some schedule codes hold Z or #, which are not explained here. Where survival is the endpoint, this PubChem deposit counts one and a half times the control or more as active, and values a quarter to a half above the control carry no call in these data; other NCI protocols may use other cut-offs. Some entries hold several experiments; the values are given in rising order.

Test system: L1210 leukemia ip in BDF1 mice, survival T/C
Assay: NCI In Vivo Anticancer Drug Screen. Data for tumor model L1210 Leukemia (intraperitoneal) in B6D2F1 (BDF1) mice
Conditions: T/C endpoint: mean survival time, higher T/C = longer survival
[1] = dose: 200.0 mg/kg/injection, schedule: Q01DX009 (ip), vehicle: Klucel (hydroxypropylcellulose) (HPC)
[2] = dose: 150.0 mg/kg/injection, schedule: Q01DX001 (ip), vehicle: saline
[3] = dose: 300.0 mg/kg/injection, schedule: Q01DX001 (ip), vehicle: saline
[4] = dose: 100.0 mg/kg/injection, schedule: Q01DX001 (ip), vehicle: saline
[5] = dose: 200.0 mg/kg/injection, schedule: Q01DX001 (ip), vehicle: saline
[6] = dose: 400.0 mg/kg/injection, schedule: Q01DX001 (ip), vehicle: saline
[7] = dose: 400.0 mg/kg/injection, schedule: Q01DX009 (ip), vehicle: Klucel (hydroxypropylcellulose) (HPC)
[8] = dose: 100.0 mg/kg/injection, schedule: Q01DX009 (ip), vehicle: water
[9] = dose: 200.0 mg/kg/injection, schedule: Q01DX009 (ip), vehicle: water

Q: How did the survivor count (dose: 200.0 mg/kg/injection, schedule: Q01DX001 (ip), vehicle: other) turn out when O=C1Cc2ccccc2CNN1 was run?
A: 6 of 6

Q: NC(CSS(=O)(=O)O)=NCc1cccs1 was tested. Which survivor count (dose: 50.0 mg/kg/injection, schedule: Q01DX009 (ip), vehicle: saline with Tween-80) did it give?
A: 1 of 3

Q: For CN(C)c1ccc(/C=N\NC(=S)Nc2ccccc2)c(Cl)c1, which survivor count (dose: 100.0 mg/kg/injection, schedule: Q04DX003 (ip), vehicle: acetone) is on record?
A: 6 of 6

Q: And the survivor count (dose: 200.0 mg/kg/injection, schedule: Q04DX003 (ip), vehicle: acetone)?
A: 6 of 6

Q: And the survivor count (dose: 255.0 mg/kg/injection, schedule: Q01DX009 (ip), vehicle: saline with Tween-80)?
A: 6 of 6

Q: And the survivor count (dose: 385.0 mg/kg/injection, schedule: Q01DX009 (ip), vehicle: saline with Tween-80)?
A: 6 of 6

Q: And the survivor count (dose: 400.0 mg/kg/injection, schedule: Q04DX003 (ip), vehicle: acetone)?
A: 6 of 6

Q: Which survivor count (dose: 75.0 mg/kg/injection, schedule: Q01DX001 (ip), vehicle: acetone) does the source give for CCOC(=O)c1cc[n+](C)c2ccccc12 here?
A: 6 of 6

Q: What about the survivor count (dose: 150.0 mg/kg/injection, schedule: Q04DX003 (ip), vehicle: acetone) of the same compound?
A: 5 of 6

Q: And the survivor count (dose: 300.0 mg/kg/injection, schedule: Q01DX001 (ip), vehicle: acetone)?
A: 0 of 6

Q: How did the survivor count (dose: 100.0 mg/kg/injection, schedule: Q04DX003 (ip), vehicle: saline) turn out when C=C(Br)CN(C)C(C)=O was run?
A: 2 of 6

Q: And the survivor count (dose: 200.0 mg/kg/injection, schedule: Q04DX003 (ip), vehicle: saline)?
A: 0 of 6

Q: What about the survivor count (dose: 400.0 mg/kg/injection, schedule: Q04DX003 (ip), vehicle: saline) of the same compound?
A: 0 of 6

Q: For O=C1C(=C(C(F)(F)Cl)C(F)(F)Cl)C2CCC1C2 (stereo not given), which survivor count (dose: 100.0 mg/kg/injection, schedule: Q01DX009 (ip), vehicle: saline with Tween-80) is on record?
A: 3 of 6

Q: And the survivor count (dose: 200.0 mg/kg/injection, schedule: Q01DX001 (ip), vehicle: saline with Tween-80)?
A: 1 of 6

Q: And the survivor count (dose: 400.0 mg/kg/injection, schedule: Q01DX001 (ip), vehicle: saline with Tween-80)?
A: 0 of 6

Q: Which results are given for O=[N+]([O-])/C=C/c1c(Cl)cccc1Cl?
A: survivor count (dose: 100.0 mg/kg/injection, schedule: Q01DX005 (ip), vehicle: saline with Tween-80): 3 of 7; survivor count (dose: 200.0 mg/kg/injection, schedule: Q01DX005 (ip), vehicle: saline with Tween-80): 0 of 7; survivor count [1]: 1 of 6; survivor count (dose: 400.0 mg/kg/injection, schedule: Q01DX005 (ip), vehicle: saline with Tween-80): 0 of 7

Q: How did the survivor count (dose: 50.0 mg/kg/injection, schedule: Q01DX009 (ip), vehicle: Klucel (hydroxypropylcellulose) (HPC)) turn out when C=C(Br)CNCCCCCC was run?
A: 5 of 6

Q: CS(=O)(=O)OCCN(CCOS(C)(=O)=O)c1ccc(C=O)cc1 was tested. Which T/C (dose: 7.5 mg/kg/injection, schedule: Q01DX009 (ip), vehicle: saline) did it give?
A: 132 % of control

Q: And the T/C (dose: 15.0 mg/kg/injection, schedule: Q01DX009 (ip), vehicle: saline)?
A: 128 and 136 % of control

Q: What about the T/C (dose: 30.0 mg/kg/injection, schedule: Q01DX009 (ip), vehicle: saline) of the same compound?
A: 135 % of control

Q: And the T/C (dose: 50.0 mg/kg/injection, schedule: Q01DX001 (ip), vehicle: saline)?
A: 140 % of control

Q: And the T/C (dose: 60.0 mg/kg/injection, schedule: Q01DX009 (ip), vehicle: saline)?
A: 130 % of control

Q: And the T/C (dose: 75.0 mg/kg/injection, schedule: Q01DX001 (ip), vehicle: saline)?
A: 134 % of control

Q: What about the T/C [2] of the same compound?
A: 131 % of control

Q: And the survivor count [2]?
A: 2 of 6

Q: What about the survivor count (dose: 150.0 mg/kg/injection, schedule: Q01DX009 (ip), vehicle: saline) of the same compound?
A: 6 of 6

Q: And the survivor count (dose: 225.0 mg/kg/injection, schedule: Q01DX009 (ip), vehicle: saline)?
A: 5 of 6

Q: And the T/C [3]?
A: 131 % of control

Q: What about the survivor count [3] of the same compound?
A: 0 of 6

Q: For CN=C(NC)c1ccc(NC(=O)c2cccc(C(=O)Nc3ccc(C(=NC)NC)cc3)c2)cc1, which survivor count (dose: 120.0 mg/kg/injection, schedule: Q01DX Z (ip), vehicle: saline) is on record?
A: 1 of 6

Q: With Clc1ccc2c(NCCc3cnc[nH]3)ccnc2c1 as the compound, how does the survivor count (dose: 400.0 mg/kg/injection, schedule: Q01DX009 (ip), vehicle: saline with Tween-80) read?
A: 6 of 6

Q: Which results are given for CN(C)c1ccnc(N(C)C)n1?
A: survivor count (dose: 62.0 mg/kg/injection, schedule: Q01DX Z (ip), vehicle: methylcellulose (MC)): 1 of 6; survivor count (dose: 125.0 mg/kg/injection, schedule: Q01DX Z (ip), vehicle: methylcellulose (MC)): 0 of 6

Q: With Cc1ccc(Nc2nc(N)nc(N)c2N)c(C)c1 as the compound, how does the survivor count (dose: 6.0 mg/kg/injection, schedule: Q01DX Z (ip), vehicle: saline) read?
A: 3 of 6

Q: And the survivor count (dose: 25.0 mg/kg/injection, schedule: Q01DX Z (ip), vehicle: saline)?
A: 0 of 6

Q: What about the survivor count (dose: 50.0 mg/kg/injection, schedule: Q01DX Z (ip), vehicle: saline) of the same compound?
A: 2 of 6

Q: And the survivor count (dose: 100.0 mg/kg/injection, schedule: Q01DX Z (ip), vehicle: saline)?
A: 0 of 6

Q: What about the survivor count (dose: 200.0 mg/kg/injection, schedule: Q01DX Z (ip), vehicle: saline) of the same compound?
A: 0 of 6

Q: How did the survivor count [4] turn out when CC(=O)[O][Hg][c]1ccc(Cl)cc1 was run?
A: 0 of 4

Q: And the survivor count [5]?
A: 0 of 4

Q: And the survivor count [6]?
A: 0 of 4

Q: For N#Cc1cccc(/C=C/C=C\c2ccc([N+](=O)[O-])cc2)c1, which survivor count [7] is on record?
A: 6 of 6

Q: How did the survivor count (dose: 12.5 mg/kg/injection, schedule: Q04DX003 (ip), vehicle: saline with Tween-80) turn out when C[N+](C)(Cc1ccc(F)cc1)C1c2ccccc2-c2ccccc21 was run?
A: 6 of 6

Q: With O=C1C(Br)=C(Br)C(=O)c2ccccc21 as the compound, how does the survivor count [5] read?
A: 0 of 4

Q: And the survivor count [6]?
A: 0 of 4

Q: Which T/C [8] does the source give for COc1cc2c(cc1OC)C(OC)N(C)c1c-2ccc2cc(OC)c(OC)cc12 (stereo not given) here?
A: 134 % of control

Q: And the T/C [9]?
A: 127 and 139 % of control

Q: Which survivor count (dose: 100.0 mg/kg/injection, schedule: Q01DX001 (ip), vehicle: Klucel (hydroxypropylcellulose) (HPC)) does the source give for CC(C)=C1C2CCC1NN2 here?
A: 3 of 6

Q: And the survivor count (dose: 200.0 mg/kg/injection, schedule: Q01DX001 (ip), vehicle: Klucel (hydroxypropylcellulose) (HPC))?
A: 0 of 6

Q: And the survivor count (dose: 400.0 mg/kg/injection, schedule: Q01DX001 (ip), vehicle: Klucel (hydroxypropylcellulose) (HPC))?
A: 0 of 6

Q: For CC(C)(C)/[N+]([O-])=[N+](\[O-])C(C)(C)C (tested in a mixture with another compound), which survivor count (dose: 400.0 mg/kg/injection, schedule: Q04DX003 (ip), vehicle: Klucel (hydroxypropylcellulose) (HPC)) is on record?
A: 1 of 6

Q: For O=C(O)/C=C\C(Cl)(Cl)Cl, which survivor count (dose: 400.0 mg/kg/injection, schedule: Q04DX002 (ip), vehicle: saline with Tween-80) is on record?
A: 1 of 3

Q: O=C(O)CNC1CSSC1 was tested. Which survivor count [8] did it give?
A: 3 of 6

Q: What about the survivor count [9] of the same compound?
A: 0 of 6

Q: And the survivor count (dose: 400.0 mg/kg/injection, schedule: Q01DX009 (ip), vehicle: water)?
A: 0 of 6

Q: How did the survivor count [7] turn out when CCCCCCCCCCCCO was run?
A: 6 of 6

Q: For O=CC(CCN1CCCCC1)(CCN1CCCCC1)c1cccc2ccccc12, which survivor count [1] is on record?
A: 0 of 6

Q: What about the survivor count [7] of the same compound?
A: 0 of 6

Q: Which survivor count [4] does the source give for CN(C)c1ccc(-c2nc3nc[nH]c(=O)c3[nH]2)cc1 here?
A: 0 of 4

Q: And the survivor count [5]?
A: 0 of 4

Q: What about the survivor count [6] of the same compound?
A: 0 of 4

Q: How did the survivor count (dose: 50.0 mg/kg/injection, schedule: Q01DX009 (ip), vehicle: other) turn out when C[N+]1(C)CCc2ccccc2C1Cc1ccc(Oc2ccc(CC3c4ccccc4CC[N+]3(C)C)cc2)cc1 (stereo not given) was run?
A: 0 of 3

Q: What about the survivor count (dose: 100.0 mg/kg/injection, schedule: Q01DX009 (ip), vehicle: other) of the same compound?
A: 0 of 3

Q: And the survivor count (dose: 200.0 mg/kg/injection, schedule: Q01DX009 (ip), vehicle: other)?
A: 0 of 3

Q: What does the source list for N=C(CN1CCCCC1)N1CCCCC1?
A: survivor count (dose: 200.0 mg/kg/injection, schedule: Q04DX002 (ip), vehicle: saline): 0 of 3; survivor count (dose: 400.0 mg/kg/injection, schedule: Q04DX002 (ip), vehicle: saline): 0 of 3
